A word on the AC50: it is the midpoint of the concentration-response curve, whichever way the signal moves.

Data on 41 compounds can be found in PubChem BioAssay AID493014 (National Center for Advancing Translational Sciences (NCATS), 2011).

Some of the results follow. Further columns of the screen follow, without active or inactive calls. Most of these compounds were active or inconclusive in the main read-out, so they are no random draw. Potencies come from curve fits of mixed quality, noted in brackets.

This assay is described as follows: qHTS Assay to Find Inhibitors of Chronic Active B-Cell Receptor Signaling. The note with it: ABC-DLBCL IkBa-CBG/CBR reporter, luminescence ratio (green luciferase fused to IkBa over red control in TMD8 lymphoma cells), 4 h. A digest of the protocol: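 Compounds up to 46 uM were incubated four hours with TMD8 cells whose green CBG68 luciferase is fused to IkappaBalpha; red CBR luminescence normalised the signal, and concentration-effect curves were fitted to fusion, red and ratio data.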

Where [1] appears, read: measured here: CBR red luminescence, cell number.

As for `CCc1ccc(Nc2oc(C)cc(=O)c2C(C)=O)cc1`, the AC50 under setting [1] was 35.5 µM [rising, partial curve, poor fit].

As for `CCN(CC(=O)Nc1cc(Cl)ccc1C)C(=O)C1CCCCC1`, under setting [1], the AC50 was 0.708 µM [falling, full curve].

Consider `O=C(Nc1ccc2c(c1)CCC2)c1cc(F)cc(F)c1`, for which the AC50 under setting [1] is 2.91 µM [rising, partial curve, poor fit].

As for `CCn1c(COc2ccccc2C)nnc1SCC(=O)CC(=O)Nc1ccccc1OC`, under setting [1], the AC50 is 18.4 µM [falling, single point].

In the case of `O=C(NNC(=O)c1ccccc1C(=O)O)c1cc2ccccc2o1`, under setting [1], the AC50 is 22.4 µM [falling, single point].

Take `CCC(C)Cn1c(C)nc2ccccc21` (configuration not stated): the AC50 under setting [1] was 6.31 µM [falling, single point].

On to `O=C(Cn1nnc2c(cnn2-c2ccc(F)cc2)c1=O)c1ccccc1F`, for which the concentration at half-maximal activity (AC50) under setting [1] was 0.291 µM [rising, full curve, poor fit].

In the case of `O=C(Nc1ccc2c(c1)OCO2)C1CCCN1C(=O)OCc1ccccc1` (configuration not stated), under setting [1], the concentration at half-maximal activity (AC50) was 10 µM [rising, partial curve, poor fit].

With `CCN(CC)C(=O)CSc1nnc(-c2cccc(OC)c2)o1`, the AC50 under setting [1] was 0.164 µM [rising, full curve, poor fit].

As for `CCOC(=O)c1cnn(-c2ccccc2)c1-n1cccc1C(=O)C(=O)Nc1ccc(F)cc1`, the AC50 under setting [1] was 2.82 µM [falling, partial curve, poor fit].

Regarding `CCOC(=O)c1ccc(NC(=O)C2=C(C)Nc3nc(CCCO)nn3C2c2ccc(OC)cc2)cc1` (configuration not stated), under setting [1], the concentration at half-maximal activity (AC50) was 1.58 µM [rising, partial curve, poor fit].

Take `CC12CC3CC(C)(C1)CC(C(=O)NCc1ccco1)(C3)C2`: the AC50 under setting [1] is 0.251 µM [falling, partial curve, poor fit].

Turning to `Cc1sc(NC(=O)CN(Cc2ccc(F)cc2)C(=O)C(C)C)c(C(N)=O)c1C`, under setting [1], the AC50 is 0.0891 µM [falling, full curve, poor fit].

`O=C(NNC(=O)c1ccccc1[N+](=O)[O-])Nc1ccc(Cl)cc1`: the AC50 under setting [1] was 35.5 µM [falling, single point].

As to `O=C(CSc1ncccn1)NCCC1=CCCCC1`, under setting [1], the AC50 was 4.61 µM [rising, full curve].

Consider `Cn1ccsc1=NC(=O)c1cccc(OC(F)F)c1`, for which the AC50 under setting [1] is 0.708 µM [rising, full curve, poor fit].

Consider `COc1ccccc1NC(=S)NC(=O)c1ccc(Cn2cc(Br)cn2)cc1`, for which the concentration at half-maximal activity (AC50) under setting [1] is 0.366 µM [falling, partial curve, poor fit].

With `COc1ccc2oc(=O)c(C(=O)n3ccc(C)n3)cc2c1`, the half-maximal activity concentration (AC50) under setting [1] is 6.51 µM [falling, single point].

Take `Cn1ccs/c1=N\C(=O)Nc1cccc(Cl)c1`: the AC50 under setting [1] was 35.5 µM [falling, single point].

As for `COc1ccccc1OCCC(=O)OCC(=O)Nc1ccc(Br)cc1`, the concentration at half-maximal activity (AC50) under setting [1] is 1.03 µM [falling, partial curve, poor fit].

Turning to `C/C(=N\NC(=S)NCc1ccccc1)c1ccc(Cl)cc1`, the AC50 was 29.1 µM [rising, single point] under setting [1] and 20.6 µM [falling, single point] (measured here: IkBa-CBG green luminescence).

As for `CC(=O)N1CCC(=NNc2ccc(S(=O)(=O)N3CCOCC3)cc2[N+](=O)[O-])CC1`, under setting [1], the half-maximal activity concentration (AC50) is 20.6 µM [falling, partial curve].

Turning to `Cc1ccc(S(=O)(=O)c2c(N)n(NC(=O)c3ccco3)c3nc4ccccc4nc23)cc1`, the AC50 under setting [1] is 20 µM [falling, partial curve].

In the case of `Cc1ccc(C(=O)N2c3ccc(F)cc3CCC2C)o1` (configuration not stated), under setting [1], the AC50 is 2.31 µM [rising, partial curve, poor fit].

Take `COC(=O)c1sccc1NC(=O)COc1cccc(C)c1`: the AC50 under setting [1] is 1.12 µM [falling, full curve].

Take `O=C(CC1NCCNC1=O)Nc1cccc([N+](=O)[O-])c1` (configuration not stated): the AC50 under setting [1] was 17.8 µM [rising, single point].

For the compound `COC(=O)c1ccccc1NC(=O)COC(=O)[C@H](C)NC(N)=O`, under setting [1], the AC50 is 22.4 µM [falling, single point].

For the compound `CC1(C)CC2(CC(c3cccs3)c3cc(Cl)c(O)cc3O2)NC(=S)N1` (configuration not stated), the AC50 under setting [1] is 20 µM [falling, partial curve, poor fit].

In the case of `COc1ccc(-n2nnnc2SCC(=O)Nc2cccc(NC(C)=O)c2)cc1OC`, the AC50 under setting [1] was 4.47 µM [rising, full curve, poor fit].

As for `O=c1cnn(-c2ccc(Cl)cc2Cl)c(-c2ccccc2)c1`, the AC50 under setting [1] was 5.8 µM [rising, full curve].

Consider `COc1ccccc1NC(=O)Cn1cc(C(=O)c2ccco2)c2ccccc21`, for which, under setting [1], the AC50 was 15.8 µM [falling, single point].

Consider `Cn1cc(S(=O)(=O)N2CCN(c3ccccc3F)CC2)c(=O)n(C)c1=O`, for which the AC50 under setting [1] was 29.1 µM [falling, single point].

As for `CCOC(=O)C(NC(C)=O)(NC(C)C)C(F)(F)F` (configuration not stated), under setting [1], the half-maximal activity concentration (AC50) is 31.6 µM [rising, single point].

For `O=c1c2ccccc2nc(/C=C/c2cccnc2)n1CCc1ccccc1`, the AC50 under setting [1] was 12.6 µM [falling, partial curve].

Turning to `COc1ccccc1-c1noc(-c2cccs2)n1`, the AC50 under setting [1] is 1 µM [rising, partial curve].

Regarding `CCn1cc(C(=O)Nc2ccc(C(=O)N3CCCC3)cc2)c(=O)c2ccc(C)nc21`, the AC50 under setting [1] is 8.91 µM [rising, partial curve, poor fit].

In the case of `CCOc1ccccc1Nc1nc(N)nc(CN2CCCCC2C)n1` (configuration not stated), the AC50 under setting [1] was 0.794 µM [rising, full curve, poor fit].

Consider `O=C(CCSCCc1ccccn1)Nc1nccs1`, for which the concentration at half-maximal activity (AC50) under setting [1] is 11.2 µM [falling, partial curve].

Turning to `C=CC[C@@H](CC(=O)N[C@@H](CO)Cc1ccccc1)C(=O)N[C@H](COC(=O)[C@@H](CC=C)Cc1ccc(F)cc1)C(C)(C)C`, under setting [1], the AC50 is 23.1 µM [falling, single point].

For `COc1ccc(CN(CC2CCC(C(=O)O)CC2)C(=S)Nc2ccccc2OC)cc1` (configuration not stated), the half-maximal activity concentration (AC50) under setting [1] was 3.55 µM [falling, partial curve, poor fit].

Turning to `COC(=O)c1ccccc1NC(=S)NC(=O)CC(C)C`, the AC50 under setting [1] was 7.94 µM [falling, partial curve, poor fit].
